# Results reported in patent US20230330077A1, “USE OF SPHINGOSINE-1-PHOSPHATE RECEPTOR AGONIST” (LG CHEM, LTD., priority 2020, published 2023).
# For at least one compound, name, drawing or mass did not settle the structure.
# System: oxazolone-induced animal model of atopic dermatitis
# Assay: oxazolone-induced animal model of atopic dermatitis in mice
# Assay type: in vivo, mice (Balb/c)
# Conditions: Example 4, Table 3; oral administration 1 mg/kg once a day; reduction in mast cell accumulation, ear tissue
# Method: An animal model of atopic dermatitis was induced in mice (Balb/c) by the use of oxazolone. With the first sensitization day of oxazolone set as day 0, it was administered orally or transdermally starting on day 7 once a day. When the date of application of oxazolone and the date of administration of the drug were overlapped, the drug was administered about 6 hours after application of oxazolone.
# For all mice, abdominal hair was removed one day before the first application of oxazolone. Then, 1% or 0.2% oxazolone was prepared by the use of a 4:1 ratio of acetone/corn oil, and sensitization and induction on the shaved mouse abdomen and both ears were performed with the same dose and schedule as represented in Table 1 and FIG. 1.
# The test substances (the Test Compound and dexamethasone as a positive control) were prepared for each administration dose as represented in Table 2 below by the use of 0.5% methyl cellulose. In the case of the Test Compound, it was prepared in consideration of the HCl salt form. The test substances were dissolved in 0.5% methyl cellulose and then sonicated.
# The test substances were prepared by dissolving them at the concentration of 0.1% (w/v) in a solution (PEG400:100% ethanol=1:1). 5 mL of PEG400 was added to 10 mg of the test substances and sonicated. […]
structure (smiles),measurement,value
"C[C@@H]1C[C@H]2[C@@H]3CCC4=CC(=O)C=C[C@]4(C)[C@@]3(F)[C@@H](O)C[C@]2(C)[C@@]1(O)C(=O)CO [Dexamethasone, dexamethasone, reference compound]",Therapeutic effect (Compared to disease-induced group): Mast cell accumulation (Day 21 after administration),34%
